Reference: the supplement of paper PMC6078165
Values are relative to the signal before dosing, not to a vehicle control; the signal also falls without drug.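 Fibroblast labels denote human fibroblasts, mainly primary ones from uterus (C12385, HUF), lung (H6013), bone (Hs27A), adrenal (HADF) and skin (WS1), plus mammary HMF and breast cancer-associated Hs343T. Cancer cells are basal-like or mesenchymal-like triple-negative breast cancer lines. A hit is a response shift exceeding 3x replicate standard deviation. The tissue of the other fibroblasts is not given here.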

System: MDAMB231
Assay: relative JC-1 red fluorescence (viability) vs pre-drug, coculture with fibroblast (fraction); higher = more viable cancer cells
Conditions: 1 µM
Procedure: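 JC-1 labelled TNBC cells cocultured 1:1 (1,500 cells each) with CellTrace Violet stained primary or stromal fibroblasts in 384-well plates in FluoroBrite medium, treated with one of 42 anticancer drugs at 0.1, 1, 10 or 100 uM. JC-1 red fluorescence (mitochondrial integrity in cancer cells only) was read by plate reader every 8 h for 72 h. Values are normalised to each well's pre-drug value. The stock of one drug was tenfold lower, so its dose labels may be too high.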

O=NN(CCCl)C(=O)NC1CCCCC1 [Lomustine]
relative JC-1 red fluorescence
Conditions	8 h	16 h	24 h	32 h	40 h	48 h	56 h	64 h	72 h
coculture fibroblast: C12385	0.752	0.717	0.637	0.614	0.553	0.516	0.475	0.46	0.446
coculture fibroblast: H6013	0.856	0.791	0.735	0.719	0.6794	0.659	0.644	0.623	0.587
coculture fibroblast: H6019	0.7449	0.645	0.584	0.5412	0.4974	0.4635	0.42078	0.401	0.357
coculture fibroblast: H6076	0.86	0.763	0.725	0.712	0.683	0.64	0.623	0.611	0.601
coculture fibroblast: H6231	0.889	0.788	0.696	0.6499	0.594	0.551	0.507	0.492	0.463
coculture fibroblast: HADF	0.854	0.797	0.742	0.7061	0.66	0.608	0.587	0.565	0.525
coculture fibroblast: HCFa	0.8849	0.7976	0.763	0.71	0.651	0.601	0.576	0.545	0.503
coculture fibroblast: HCPF	0.839	0.762	0.824	0.808	0.744	0.696	0.662	0.633	0.599
coculture fibroblast: HHSteC	0.883	0.819	0.774	0.72	0.675	0.646	0.595	0.573	0.532
coculture fibroblast: HMF	0.856	0.759	0.6761	0.6401	0.588	0.55	0.501	0.487	0.463
coculture fibroblast: HPFa	0.901	0.8402	0.788	0.726	0.689	0.645	0.583	0.556	0.5
coculture fibroblast: HUF	0.858	0.765	0.757	0.63	0.562	0.537	0.483	0.465	0.444
coculture fibroblast: Hs5	0.868	0.795	0.724	0.68	0.634	0.576	0.537	0.51	0.477
coculture fibroblast: Hs27A	0.891	0.859	0.812	0.792	0.761	0.704	0.723	0.71	0.673
coculture fibroblast: Hs343T	0.858	0.737	0.629	0.57601	0.5166	0.464	0.402	0.3782	0.353
coculture fibroblast: WS1	0.758	0.689	0.59875	0.5542	0.504	0.472	0.418	0.405	0.375
